# Experimental data published in PubChem BioAssay AID1671190 (National Center for Advancing Translational Sciences (NCATS), 2021).
# By UniProt entry, the sequences of proteins in these tests, tags left out. Where a name states a change or a piece, a line headed by the entry shows the natural chain unless it says otherwise.
# UniProt P18054: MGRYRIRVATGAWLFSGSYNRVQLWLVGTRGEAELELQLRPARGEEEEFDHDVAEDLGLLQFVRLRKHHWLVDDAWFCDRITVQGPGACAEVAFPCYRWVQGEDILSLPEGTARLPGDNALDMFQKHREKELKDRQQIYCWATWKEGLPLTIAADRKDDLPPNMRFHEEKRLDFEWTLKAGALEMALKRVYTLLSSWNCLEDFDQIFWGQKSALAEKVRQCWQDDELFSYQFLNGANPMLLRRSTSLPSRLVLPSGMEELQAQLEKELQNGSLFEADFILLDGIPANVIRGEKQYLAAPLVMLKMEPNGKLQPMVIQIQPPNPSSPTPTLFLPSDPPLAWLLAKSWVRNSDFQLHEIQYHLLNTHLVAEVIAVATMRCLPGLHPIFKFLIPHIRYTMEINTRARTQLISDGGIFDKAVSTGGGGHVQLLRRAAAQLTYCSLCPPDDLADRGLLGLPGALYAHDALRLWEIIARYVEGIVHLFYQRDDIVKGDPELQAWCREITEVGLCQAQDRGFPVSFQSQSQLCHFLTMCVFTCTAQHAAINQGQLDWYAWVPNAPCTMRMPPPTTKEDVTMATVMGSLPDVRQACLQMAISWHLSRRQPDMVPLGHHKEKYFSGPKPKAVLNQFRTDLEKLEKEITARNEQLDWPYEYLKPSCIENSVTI
# Several values for one entry are separate records, joined by “and”; a condition that tells them apart may be missing. Identical values can stand only once. Hit rate of the full screen: of about 580,000 compounds, about 6,100 (1.1%) were called active. The shares of active, inactive and inconclusive entries below differ from those in the screen. Calls follow the shape of the dose curve; as a rule, active = well fitted inhibition curve with a large enough effect; inconclusive = small, poorly fitted or top-dose-only effect, or another doubt; inactive = no such curve, though single readings can be large or run the other way. A potency beside an inconclusive call is a rough fit, not a confirmed value.
# Target: Polyunsaturated fatty acid lipoxygenase ALOX12 (Homo sapiens) (UniProt P18054)
# Assay: Primary qHTS assay for inhibitors of human arachidonate 12S-lipoxygenase (ALOX12): Round 2
# Settings: purified 12hLO, xylenol orange hydroperoxide absorbance; activity change, negative = inhibition: at 108 µM (top of the series) unless noted
# Summary of the method: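 Hydroperoxide product was detected by ferrous iron/xylenol orange as the 573 to 405 nm absorbance ratio. Arachidonic acid at 40 uM (final) was turned over for 30 min at room temperature by 150 nM human 12hLO, pH 7.0 Hepes buffer, after 15 min compound preincubation.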
# % is scaled to controls: 0 for no effect and ±100 for the full control effect; potency is read from the fitted curve at half-maximal effect.
Compound,Potency,"activity change, negative = inhibition"
CC(C)C[C@@H](CN1CCC[C@H]1CN1C(=O)C(=O)NC[C@@H]1Cc1ccccc1)N1C[C@H](Cc2ccc(O)cc2)N(CCc2ccccc2)C(=O)C1=O,"inconclusive: 44.7 µM [inhibitor, partial curve, poor fit]",
COc1ccc(-c2ccc(OC)c([C@H]3[C@H]4C=CC[C@@H](C)[C@@H]4C(=O)N3Cc3ccccc3)c2)cc1C,"inconclusive: 50.1 µM [inhibitor, partial curve, poor fit]",
C[C@]12CCC3=C4CCC(=O)C=C4CC[C@@H]3[C@H]1CC[C@@]2(O)CC#N,active: 19.3 µM,
Cc1cc(/C=C/C(=O)c2ccc(F)cc2)cc(C)c1O,active: 44.7 µM,
O=C(Cc1ccc(Cl)cc1)N1CCC2(CC1)NC(=O)N(c1ccccc1Cl)N2,active: 1.41 µM,
CCOC(=O)c1sc(NC(=O)c2cc(-c3cccc(O)c3)on2)c(C(=O)OCC)c1C,inactive,
Nc1ccccc1C(=O)N(Cc1ccccc1)Cc1ccccc1,inactive,
Cc1cccc(S(=O)(=O)NC(=O)C2(C)CCN2C(=O)Cc2ccc(-c3ccccc3)cc2)c1 (stereo unspecified),inactive,
CCOc1ccc(NC(=O)COC(=O)c2nn(C)c(=O)c3ccccc23)cc1,inactive,
O=C(COc1ccc(F)cc1)N1CCC2(CC1)NCCc1c2[nH]c2ccccc12,"inconclusive: 44.7 µM [inhibitor, partial curve, poor fit]",
CC(C)C(=O)Nc1nnc(CCc2ccccc2)s1,inactive,
Cc1noc(C)c1CCC(=O)NC1CCCc2c1[nH]c1ccccc21 (stereo unspecified),"inconclusive: 44.7 µM [inhibitor, partial curve, poor fit]",
Cc1ccc(NC(=S)N/C(=N/S(=O)(=O)c2ccccc2)c2ccccc2)cc1,"inconclusive: 6.31 µM [inhibitor, partial curve, poor fit] and active: 35.5 µM",
COc1ccc(-c2cc(C(=O)N(C)CC(=O)Nc3ccccc3Cl)c3ccccc3n2)cc1OC,"inconclusive: 56.2 µM [inhibitor, partial curve, poor fit]",
COc1ccc(CCN(C)C2CCCN(C(=O)c3sccc3C)C2)cc1OC (stereo unspecified),inactive,
COc1cccc(CN2CCN(C(=O)c3cc(-c4ccncc4)nc4ccc(C)cc34)CC2)c1,inactive,
O=C1CCCN1c1cccc(-c2csc(-c3cccnc3)n2)c1,"inconclusive: 44.7 µM [inhibitor, partial curve, poor fit]",
COc1cc(C(C)=O)ccc1Oc1ncnc2c1cnn2-c1cccc(Cl)c1,"inconclusive: 39.8 µM [inhibitor, partial curve, poor fit]",
O=C(O)c1cccc(Br)c1,"inconclusive: 89.1 µM [inhibitor, single point]",
Nc1nc(N)nc(-c2ccccn2)n1,inactive,
Cc1ccc(NC(=O)COC(=O)c2cc(Cl)ccc2[N+](=O)[O-])cc1,"inconclusive: 126 µM [inhibitor, partial curve, poor fit]",

Compound,Potency,"activity change, negative = inhibition"
O=C1CC(=C(c2ccccc2)c2ccccc2)C(=O)N1CCCCN1CCN(c2ccccc2)CC1,active: 39.8 µM,
O=C(NCCN1CCCCC1)c1cc2cn(C3CCCC3)cc2s1,"inconclusive: 28.2 µM [inhibitor, single point]",
Cc1cccc(NC(=O)c2cc(=O)c3cc(C)cc(C)c3o2)c1,inactive,
O=C(CCc1nc(-c2ccc(F)cc2)no1)N1CCc2sccc2C1c1cccs1 (stereo unspecified),inactive,
Cc1cc(N2CCCCC2)nc2ccc(NC(=O)c3ccc(F)cc3)cc12,"inconclusive: 17.8 µM [inhibitor, partial curve, poor fit]",
NC(=O)C1CC=CCC1C(=O)OCC(Cl)=C(Cl)Cl (stereo unspecified),"inconclusive: 35.5 µM [inhibitor, partial curve, poor fit]",
Cc1cccc(CC(=O)NC2CC(=O)N(c3cccc(F)c3)C2)c1 (stereo unspecified),"inconclusive: 158 µM [inhibitor, partial curve, poor fit]",
COc1cccc(N2C(=O)C(CC(=O)Nc3cccc(F)c3)N(C(C)C)C2=O)c1 (stereo unspecified),,inconclusive: -36.9% [inhibitor]
O=C(NC(Cc1ccccc1)c1nc2ccccc2[nH]1)C1CC(=O)N(c2ccc3c(c2)OCCO3)C1 (stereo unspecified),"inconclusive: 1.78 µM [inhibitor, partial curve, poor fit]",
O=c1c2cc(O)c(O)cc2oc2cc(O)c(C3OC(CO)C(O)C(O)C3O)c(O)c12 (stereo unspecified),"inconclusive: 25.1 µM [inhibitor, partial curve, poor fit]",
CCN1C(=O)[C@H]2[C@@H](c3ccc(-c4ccc(Cl)c(Cl)c4)cc3)N3CCCC[C@@]3(C(=O)OC)[C@H]2C1=O,inactive,
O=C1Nc2ccc(-c3ccc(Cl)cc3)cc2C(=O)N2CCN(C(=O)c3ccccc3)C[C@H]12,"inconclusive: 28.2 µM [inhibitor, full curve]",
COC(=O)[C@H](C)NC(=O)c1cc2c(cn1)[nH]c1ccccc12,"inconclusive: 35.5 µM [inhibitor, partial curve, poor fit]",
CC(CNC(=O)Cn1ncc2c3ccccc3n(Cc3cccc(Cl)c3)c2c1=O)c1ccccc1 (stereo unspecified),"inconclusive: 44.7 µM [inhibitor, partial curve, poor fit]",
COCCNC(=O)CSc1nc(-c2ccc(F)cc2)[nH]c1-c1ccc(Cl)cc1,"inconclusive: 100 µM [inhibitor, partial curve, poor fit]",
NS(=O)(=O)c1ccccc1NC(=S)Nc1ccccc1S(N)(=O)=O,"inconclusive: 3.16 µM [inhibitor, full curve, poor fit]",
CC(C)(C)c1ccc2c(c1)OCCOCCOCCOCCO2,"inconclusive: 0.794 µM [inhibitor, full curve, poor fit]",
O=C(Nc1ccc(N2CCN(C(=O)c3cccs3)CC2)cc1)c1cccc(F)c1,"inconclusive: 126 µM [inhibitor, partial curve, poor fit]",
Nc1nc(=S)c2[nH]cnc2[nH]1,"inconclusive: 0.344 µM [inhibitor, full curve]",
O=C(c1ccco1)N1CCN(c2ncnc3sc4c(c23)CCC4)CC1,"inconclusive: 31.6 µM [inhibitor, partial curve, poor fit]",
